Some of the results follow. Shown are side measurements of this screen, not its main read-out; they come without a call. The list favours compounds with an active or inconclusive main result. The note in brackets gives the kind of curve behind each potency; many fits are weak.

54 compounds from PubChem BioAssay AID1487 (National Center for Advancing Translational Sciences (NCATS), 2009) can be followed below.

The nature of this experiment: qHTS Assay for Modulators of Lamin A Splicing. The following applies: HeLa LMNA splicing GFP/RFP minigene ratio, 48 h. In outline: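 S3 HeLa stable clones carrying a lamin A-EGFP splicing minigene plus DsRed2 were seeded at 600 cells/well in Opti-MEM with 2% FBS, pin-dosed and incubated 48 h at 37°C. Acumen cytometry (488 nm) gave the GFP/RFP total-intensity ratio.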

Where [1] appears, read: measured here: GFP splicing reporter channel.
Setting [2] is: measured here: RFP viability control channel.

The AC50 is the concentration at which the activity in the assay is half-maximal. Take `CCCc1nc2ccccc2c(=O)n1/N=C/c1ccccc1O`: the AC50 under setting [1] was 35.5 µM [rising, single point] and the AC50 under setting [2] was 28.2 µM [rising, single point].
As for `COc1cccc(-c2nn(-c3ccccc3)cc2C(=O)OCC(=O)Nc2ncc(Cl)cc2Cl)c1`, the AC50 under setting [2] was 5.01 µM [rising, partial curve].
Same read-out and setting: as for `Cc1cccc(-c2nnc(SCC(=O)Nc3ccc(C)c(C)c3)o2)c1`, the figure is 1.78 µM [falling, partial curve].
Consider `CC(=O)c1c(C)[nH]c(C(=O)CSc2nnc(-c3ccco3)n2Cc2ccccc2)c1C`, for which the AC50 is 7.94 µM [rising, partial curve] under setting [1] and 10 µM [rising, partial curve] under setting [2].
For `COCCCNC(=O)CCCn1c(=O)c2ccccc2n(CC(=O)Nc2c(C)cc(C)cc2C)c1=O`, the AC50 under setting [1] was 0.0224 µM [falling, full curve, poor fit].
Same read-out and setting: as for `Cc1cc(C)c(Cn2cnc(-c3ccc([N+](=O)[O-])cc3)c2)c(C)c1`, the figure is 3.55 µM [falling, full curve, poor fit].
With `Cc1ccc(CNC(=O)CN2C(=O)C3CCCCN3c3ccc(C(=O)N(C)C)cc32)cc1` (stereo not drawn), the AC50 under setting [2] is 0.00501 µM [falling, full curve, poor fit].
As to `Cc1ccc(C)c(NC2=CC(=O)CC(C)(C)C2)c1C#N`, the AC50 under setting [1] was 22.4 µM [rising, single point].
As to `CCCCCc1nc2c(C#N)c(-c3ccc(Cl)cc3)ccn2n1`, the AC50 under setting [2] is 28.2 µM [falling, partial curve].
On the same count and under the same terms, as for `O=C(CSc1nc2ccccc2[nH]1)Nc1ccc2c(c1)CCC2`, the figure is 12.6 µM [rising, single point].
With `O=C(O)/C=C/C(=O)NC1CCS(=O)(=O)C1` (stereo not drawn), the AC50 under setting [1] was 3.98 µM [falling, full curve, poor fit] and the AC50 under setting [2] is 1.58 µM [falling, full curve, poor fit].
On to `COC1(OC)N=C(N)C2(C#N)C(c3ccccc3)NC(C)=CC12C#N` (stereo not drawn), for which the AC50 under setting [1] was 0.0112 µM [rising, full curve].
On the same count and under the same terms, the value for `CCOC(=O)c1csc(NC(=O)c2ccc(OCC)cc2)n1` was 2.82 µM [falling, partial curve, poor fit].
Take `COc1ccccc1NC(=O)C1=C(C)Nc2nnnn2C1c1cccc(Br)c1` (stereo not drawn): the AC50 under setting [1] is 17.8 µM [falling, single point] and the AC50 under setting [2] was 20 µM [falling, single point].
`Cc1cc(F)ccc1NC(=O)C1CCCO1` (stereo not drawn): the AC50 under setting [2] was 1.12 µM [falling, partial curve, poor fit].
Take `CCCOc1ccc(CNC(=O)CCCN2C(=O)CSc3c2c(C)nn3-c2ccccc2)cc1`: the half-maximal activity concentration (AC50) runs as follows: under setting [1], 20 µM [falling, partial curve, poor fit]; under setting [2], 0.282 µM [falling, partial curve, poor fit].
Turning to `CCOc1ccc(-n2c(-c3ccccc3)c[n+]3c2CCCCC3)cc1`, the AC50 under setting [1] is 2.24 µM [rising, partial curve] and the concentration at half-maximal activity (AC50) under setting [2] was 3.55 µM [rising, partial curve].
As to `COC(=O)/C=C1\N/C(=N\c2nc(C)cc(C)n2)N(c2ccc(C)cc2)C1=O`, the AC50 under setting [2] was 10 µM [rising, partial curve, poor fit].
With `N#Cc1cccc(NC(=O)C2CCN(S(=O)(=O)c3ccc4c(c3)CCCN4C(=O)C3CCC3)CC2)c1`, under setting [1], the AC50 is 1.12 µM [rising, full curve].
Turning to `CCOC(=O)c1ccc(N2C(=O)c3n[nH]c(-c4ccco4)c3C2c2cccc([N+](=O)[O-])c2)cc1` (stereo not drawn), the AC50 under setting [2] was 20 µM [rising, partial curve, poor fit].
Same read-out and setting: the value for `Cc1cc(N(C)C)c(C#N)c(NCc2ccccc2)n1` was 0.01 µM [falling, full curve, poor fit].
In the case of `CCC1=NN=C(c2ccc(F)cc2)C(c2c[nH]c3ccccc23)N1O` (stereo not drawn), the AC50 under setting [1] was 35.5 µM [falling, single point].
Take `CCCn1c2c(c(O)c(C(=O)Nc3ccc(OCC)cc3)c1=O)CCCC2`: under setting [2], the AC50 was 35.5 µM [falling, partial curve, poor fit].
For `Cc1ccc2nc(N(CCCN(C)C)C(=O)c3cc4ccccc4oc3=O)sc2c1`, the half-maximal activity concentration (AC50) under setting [1] was 4.47 µM [rising, full curve, poor fit].
For the compound `O=C(COc1ccc(Cl)cc1)Nc1cccc(-c2ccc3nncn3n2)c1`, the AC50 by setting is: under setting [1], 0.0224 µM [falling, partial curve, poor fit]; under setting [2], 0.01 µM [falling, full curve, poor fit].
As to `Cc1cc(C)c(OCCCON2C(=O)CCC2=O)c(Br)c1`, the AC50 is, setting by setting: under setting [1], 0.631 µM [rising, full curve, poor fit]; under setting [2], 0.158 µM [rising, full curve, poor fit].
For the compound `Cc1cs/c(=N\N=C\c2ccc(O)cc2)n1Cc1ccco1`, the AC50 under setting [2] is 17.8 µM [rising, partial curve].
`CCOC(=O)C(C)Sc1nc2c(c(-c3cccs3)c1C#N)CCC2` (stereo not drawn): the AC50 reads like this: under setting [1], 14.1 µM [rising, partial curve]; under setting [2], 25.1 µM [rising, single point].
In the case of `O=C(c1ccc(Br)cc1)N1CCC(c2nc3ccccc3s2)CC1`, the AC50 is 20 µM [falling, single point] under setting [1] and 31.6 µM [falling, single point] under setting [2].
Turning to `CC(=O)c1cc(Cc2csc(C(C)=O)c2)cs1`, the AC50 under setting [1] is 12.6 µM [rising, single point].
As to `COC1=C(OC)C(=O)C(C/C=C(\C)CC/C=C(\C)CC/C=C(\C)CC/C=C(\C)CC/C=C(\C)CC/C=C(\C)CC/C=C(\C)CC/C=C(\C)CC/C=C(\C)CCC=C(C)C)=C(C)C1=O`, the AC50 is, setting by setting: under setting [1], 1.58 µM [rising, full curve]; under setting [2], 0.0112 µM [rising, full curve, poor fit].
For `CCn1nnc(NC(=O)c2ccc(-c3ccccc3[N+](=O)[O-])o2)n1`, under setting [1], the AC50 was 35.5 µM [rising, single point].
On to `C=CCn1c(COc2ccc(OC)cc2)nnc1SCn1nnc2ccccc2c1=O`, for which the AC50 is, setting by setting: under setting [1], 20 µM [rising, partial curve]; under setting [2], 31.6 µM [rising, single point].
Take `CCOC(=O)c1ccccc1NC(=O)c1cn(CC)c2nc(C)ccc2c1=O`: the AC50 under setting [2] is 3.98 µM [rising, full curve, poor fit].
Still for that read-out and setting: as for `CCn1c(SCC(=O)Nc2nc3ccc(OC)cc3s2)nnc1-c1ccoc1C`, the figure is 14.1 µM [rising, single point].
As to `CC(C)(C)NC[C@@H](O)COc1ccccc1C1CCCC1`, the AC50 under setting [1] is 14.1 µM [falling, partial curve, poor fit].
Still for that read-out and setting: as for `CCc1cccc(Nc2c3c(nc4ncnn24)CCC3)c1`, the figure is 35.5 µM [rising, single point].
For `CC(=O)N(C)c1ccc(NC(=O)/C=C/c2ccccc2Cl)cc1`, the AC50 is, setting by setting: under setting [1], 1 µM [rising, full curve]; under setting [2], 4.47 µM [rising, partial curve].
For `CN(C)c1ccc(/C=N/NC(=O)CN(c2cccc(Cl)c2)S(C)(=O)=O)cc1Br`, the AC50 under setting [2] was 22.4 µM [rising, single point].
The same measure, in the same setting: as for `CN(C)Cc1nc2ccccc2c(=O)n1Cc1nc(-c2cc3ccccc3o2)cs1`, the figure is 11.2 µM [rising, single point].
Turning to `CC(C)CNS(=O)(=O)c1ccc(CCC(=O)N2CCN(c3ccc(F)cc3)CC2)cc1`, under setting [1], the AC50 is 28.2 µM [falling, partial curve].
With `Fc1ccc2[nH]c3c(N4CCN(C5CCCCC5)CC4)ncnc3c2c1`, the AC50 under setting [2] is 10 µM [rising, partial curve, poor fit].
For `Cc1nnc(SC(C)C(=O)NCC2CCCO2)n1-c1ccccc1` (stereo not drawn), under setting [2], the AC50 was 5.62 µM [rising, single point].
As to `CCCCNC(=O)c1cc(-c2ccc(F)cc2)on1`, the AC50 by setting is: under setting [1], 35.5 µM [falling, single point]; under setting [2], 35.5 µM [falling, single point].
As for `COc1ccc(N2CCN(C(=O)C3CCC(Cn4c(=S)[nH]c5ccccc5c4=O)CC3)CC2)cc1` (stereo not drawn), the concentration at half-maximal activity (AC50) runs as follows: under setting [1], 17.8 µM [rising, single point]; under setting [2], 12.6 µM [rising, partial curve].
Regarding `Cc1cc(C(=O)Nc2cccc(C(F)(F)F)c2)c2c(C)nn(-c3cccc(F)c3)c2n1`, the AC50 under setting [2] is 17.8 µM [rising, partial curve, poor fit].
For `CSc1nc(C)cc(OCC(=O)N/N=C/c2ccccc2O)n1`, under setting [2], the AC50 was 7.08 µM [rising, partial curve].
Take `CC(=O)Nc1ccc(NC(=O)CC(C)n2ccc(C)n2)cc1` (stereo not drawn): the half-maximal activity concentration (AC50) runs as follows: under setting [1], 0.1 µM [falling, full curve]; under setting [2], 0.112 µM [falling, full curve].
Consider `O=C1c2ccccc2C(=O)N1CCCCSc1nnnn1-c1ccccc1`, for which the concentration at half-maximal activity (AC50) under setting [1] was 20 µM [rising, single point] and the AC50 under setting [2] is 31.6 µM [rising, single point].
In the case of `COc1ccc(Cn2c(CCC(=O)O)nc3cccnc32)cc1`, the AC50 under setting [2] is 0.0316 µM [falling, full curve, poor fit].
`CCOc1ccc(S(=O)(=O)N/N=C(\C)c2ccc(Cl)c(Cl)c2Cl)cc1`: the AC50 reads like this: under setting [1], 35.5 µM [falling, single point]; under setting [2], 35.5 µM [falling, single point].
In the case of `Cc1nnc(Sc2cc(NCCO)c([N+](=O)[O-])c3nonc23)s1`, the AC50 runs as follows: under setting [1], 25.1 µM [falling, single point]; under setting [2], 35.5 µM [falling, single point].
In the case of `Cc1nn(Cc2ccc(C(=O)N3N=C(C(F)F)CC3(O)C(F)F)o2)c(C)c1[N+](=O)[O-]` (stereo not drawn), the AC50 under setting [2] was 8.91 µM [rising, partial curve].
On the same count and under the same terms, as for `CCc1ccc(NC(=O)c2cc(S(=O)(=O)N3CCCCC3)c[nH]2)cc1`, the figure is 0.00447 µM [falling, full curve, poor fit].
